# These are yes or no findings as the source states them, for the method shown. Binding seen in cells or lysates may run through a third protein. Some binding calls cover weakened binding; strength is not graded here. Where a sequence is shown, tags or fusion partners need not be part of it.
# Chains of the proteins cited; added tags and fusions are not shown.
# UniProt Q2FYI5: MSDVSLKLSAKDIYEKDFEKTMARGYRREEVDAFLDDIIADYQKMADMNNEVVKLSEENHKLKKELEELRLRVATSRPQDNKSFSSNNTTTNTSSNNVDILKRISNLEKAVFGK
# B1: 6xHis-tagged FacZ (FacZ-His) (protein, UniProt Q2G247 1-163)
# chain: MDWILPIAGIIAAIAFLILCIGIVAVLNSVKKNLDYVAKTLDGVEGQVQGITRETTDLLHKVNRLTEDIQGKVDRLNSVVDAVKGIGDSVQTLNSSVDRVTNSITHNISQNEDKISQVVQWSNVAMEIADKWQNRHYRRGSANYKANNVATDANHSYTSRVDK
# Target: FLAG-tagged GpsB (GpsB-FLAG) (S. aureus) (UniProt Q2FYI5)
# Assay: co-IP; S. aureus cells co-expressing FacZ-His and GpsB-FLAG; solubilized membrane fractions loaded onto anti-FLAG magnetic beads, washed, eluted; blots with anti-His and anti-FLAG
binder,measurement,value
B1,binding,binds
